Assay results reported in patent US20240150495A1.
Results are given in words; binding and its absence hold for the method and conditions named. Some entries that bind do so weakly or less than the wild type.

T1: synthetic peptide Rp10-L, a mimotope of B-cell molecular marker CD20
T1 sequence (peptide): ITPWPHWLERSS

B1: CH3 clone C50 (mutated human IgG1 CH3 domain, CH3+3 library) (designed binder, not shown: small tags and cut ends)
chain: MAPREPQVYTLPPSRDELLTHQVSLTCLVKGFYPSDIAVEWESNGQPENNYKTTPPVLDSDGSFFLYSKLTVALCRWFRGWVQGNVFSCSVMHEALHNHYTQKSLSLSPGKAAA
B2: CH3 clone D5 (mutated human IgG1 CH3 domain, CH3+3 library) (designed binder, not shown: small tags and cut ends)
chain: MAPREPQVYTLPPSRDELALRQVSLTCLVKGFYPSDIAVEWESNGQPENNYKTTPPVLDSDGSFFLYSKLTVFCGGVVRWGLGNVFSCSVMHEALHNHYTQKSLSLSPGKAAA

Biological target: T1, synthetic peptide Rp10-L, a mimotope of B-cell molecular marker CD20
Test: ELISA screen on the CD20 mimotope peptide Rp10-L

Row | Binder | binding
1 | B1 | binds
2 | B2 | binds
